Measurements published in PubChem BioAssay.
The other results are listed elsewhere or left out. Further columns of the screen follow, without active or inactive calls. Compounds called inactive in the main read-out are mostly missing here.

Assay: reducers of endogenous Her2 protein level, primary screen, SKBR3 breast tumor cells, AlphaScreen, ATP viability (AID 461);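 further: percent of carrier control wells set as 100% viability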
Conditions: 18-24 h, measured here: SKBR3 viability, ATP luminescence, at 10 µM
In the case of `COCc1cc(C)nc(Nc2ccc(C)cc2C)c1C#N`, the viability is reported as 70%.
`COc1cc(C(=O)N2CCN(c3cc(Cl)ccc3Cl)CC2)cc(OC)c1OC` gave a viability of 77.5%.
`CC(C)CC1NC(=O)N(CC(=O)N2CCN(S(=O)(=O)c3ccc(Cl)cc3)CC2)C1=O` (configuration not stated) gave a viability of 97%.
`Cc1cccc(C)c1OCC(=O)Nc1cccc(NC(=O)c2ccco2)c1` showed a viability of 97%.
Molecule `COc1ccc(-n2ncc3c(NCc4ccc5c(c4)OCO5)ncnc32)cc1` has a viability of 92.5%.
`COc1ccc(Cl)cc1Nc1nc(NCCO)nc(N2CCCC2)n1` gave a viability of 62%.
With `Cn1c(NC(=O)c2cccc(Cn3cc(Cl)cn3)c2)nc2ccccc21` the viability was 83%.
Work on `FC(F)(F)COc1nc(N2CCCCC2)nc(N2CCNCC2)n1` yielded a viability of 82%.
Work on `CCOC(=O)CSc1nnc(-c2ccc(NS(=O)(=O)c3ccc(C)cc3)cc2)o1` yielded a viability of 87%.
`COc1ccccc1NC(=O)c1oc2ccccc2c1NC(=O)c1cc(OC)c(OC)c(OC)c1` gave a viability of 56.5%.
`CCOC(=O)C1=C(C)Nc2nc(SCC(=O)OC)nn2C1c1cc(F)cc(F)c1` (configuration not stated) showed a viability of 91.5%.
In the case of `O=C(Nc1ccc2c(c1)nc1n2CCN(Cc2ccccc2)C1)c1cccs1`, the viability is reported as 76.5%.
`CCC1CCCCN1c1nc(-c2ccncc2)nc2ccccc12` (configuration not stated) gave a viability of 76.5%.
For `NC(=O)c1sc2nc(N3CCCCC3)c3c(c2c1N)CCCC3`, the viability was 75%.
`Cc1nc(SCC(=O)Nc2cc(C)on2)c2c3c(sc2n1)CCCC3` showed a viability of 66.5%.
`Cn1c(C(=O)Nc2ccc3c(c2)OCO3)cc2c(=O)n(C)c3ccccc3c21` showed a viability of 73%.
For `Cc1cccn2c(=O)c3cc(C#N)c(=NC(=O)c4ccncc4)n(Cc4ccco4)c3nc12`, the viability was 110%.
